Results deposited as PubChem BioAssay AID1508597 (Cure First, 2020).
Assay: 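Survival screen with siRNA in ovarian cancer cells derived from patients, with or without rucaparib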 (primary screen). Cell system: human ovarian carcinoma lines grown from tumours: OCI-P5x (papillary serous) and OCI-C5x (clear cell). Reagents: siRNA pool against human genes, 1.25 pmol siRNA per well. Time to read-out: 72 h or 96 h, depending on the cell culture. Conditions: rucaparib 20 µM (about IC30) or vehicle, present until read-out. Read-out: 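ATP luminescence measured at 72 or 96 h according to the culture, then normalised and expressed as percent viability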. Direction: viability, normalised: higher = more viable cells remaining. Active means: 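Active when normalised viability falls below 80 percent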. Calls: active = viability under 80%; inactive = viability 80% or more.
In all, the deposit lists about 2,100 reagents; this is a part drawn at random. 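Calls flag viability under 80% in either arm, not effects specific to rucaparib; the reference for percent is not stated.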 Unmarked entries are inactive. Not stated in the record: the 100% reference.

How did the screen score PAXIP1 (PAX interacting protein 1), rucaparib or vehicle Rucaparib, cell line OCI-C5x (clear cell), technical replicate 1?
viability, normalised (%): 57.8 (active)

With PAXIP1 (PAX interacting protein 1), rucaparib or vehicle Rucaparib, cell line OCI-C5x (clear cell), technical replicate 2, what does the deposit list?
viability, normalised (%): 59.6 (active)

What did the screen give for PAXIP1 (PAX interacting protein 1), rucaparib or vehicle Rucaparib, cell line OCI-C5x (clear cell), technical replicate 3?
viability, normalised (%): 50.6 (active)

Which result is listed for PAXIP1 (PAX interacting protein 1), rucaparib or vehicle Rucaparib, cell line OCI-P5x (serous), technical replicate 1?
viability, normalised (%): 93.7

With PAXIP1 (PAX interacting protein 1), rucaparib or vehicle Rucaparib, cell line OCI-P5x (serous), technical replicate 2, how do the results read?
viability, normalised (%): 76.6 (active)

With PAXIP1 (PAX interacting protein 1), rucaparib or vehicle Rucaparib, cell line OCI-P5x (serous), technical replicate 3, how do the results read?
viability, normalised (%): 86.6

For PAXIP1 (PAX interacting protein 1), rucaparib or vehicle Vehicle, cell line OCI-C5x (clear cell), technical replicate 1, what does the deposit list?
viability, normalised (%): 70.7 (active)

With PAXIP1 (PAX interacting protein 1), rucaparib or vehicle Vehicle, cell line OCI-C5x (clear cell), technical replicate 2, what does the deposit list?
viability, normalised (%): 60.3 (active)

What did the screen give for PAXIP1 (PAX interacting protein 1), rucaparib or vehicle Vehicle, cell line OCI-C5x (clear cell), technical replicate 3?
viability, normalised (%): 69.3 (active)

What is on record for PAXIP1 (PAX interacting protein 1), rucaparib or vehicle Vehicle, cell line OCI-P5x (serous), technical replicate 1?
viability, normalised (%): 88.3

Which result is listed for PAXIP1 (PAX interacting protein 1), rucaparib or vehicle Vehicle, cell line OCI-P5x (serous), technical replicate 2?
viability, normalised (%): 80.5

What did the screen give for PAXIP1 (PAX interacting protein 1), rucaparib or vehicle Vehicle, cell line OCI-P5x (serous), technical replicate 3?
viability, normalised (%): 94.3
